Measurements as given in article PMC10830565 (2024).
Where two headings read alike, the source gives them in different places. Results are given in words; binding and its absence hold for the method and conditions named. Binding seen in cells or lysates may run through a third protein. A yes stands for co-enrichment or nearness to the bait. Other partners may have been found. One block for each molecule: values may come before it.

Sequences of proteins named here, by UniProt entry; tags and fusion partners are left off. A change or cut given only in a name is not applied to a line headed by its entry.
UniProt Q9FLP2: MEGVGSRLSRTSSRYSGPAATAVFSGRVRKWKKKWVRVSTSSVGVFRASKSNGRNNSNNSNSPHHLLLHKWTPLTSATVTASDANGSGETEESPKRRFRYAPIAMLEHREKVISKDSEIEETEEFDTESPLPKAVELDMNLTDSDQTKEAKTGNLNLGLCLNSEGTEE
UniProt F4JL58: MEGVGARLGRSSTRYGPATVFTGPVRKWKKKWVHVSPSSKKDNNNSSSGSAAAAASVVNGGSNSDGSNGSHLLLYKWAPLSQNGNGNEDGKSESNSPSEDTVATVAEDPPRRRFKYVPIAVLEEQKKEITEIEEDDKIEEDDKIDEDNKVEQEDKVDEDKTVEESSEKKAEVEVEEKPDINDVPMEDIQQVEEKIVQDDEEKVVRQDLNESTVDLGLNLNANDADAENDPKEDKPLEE
UniProt Q6EVK6: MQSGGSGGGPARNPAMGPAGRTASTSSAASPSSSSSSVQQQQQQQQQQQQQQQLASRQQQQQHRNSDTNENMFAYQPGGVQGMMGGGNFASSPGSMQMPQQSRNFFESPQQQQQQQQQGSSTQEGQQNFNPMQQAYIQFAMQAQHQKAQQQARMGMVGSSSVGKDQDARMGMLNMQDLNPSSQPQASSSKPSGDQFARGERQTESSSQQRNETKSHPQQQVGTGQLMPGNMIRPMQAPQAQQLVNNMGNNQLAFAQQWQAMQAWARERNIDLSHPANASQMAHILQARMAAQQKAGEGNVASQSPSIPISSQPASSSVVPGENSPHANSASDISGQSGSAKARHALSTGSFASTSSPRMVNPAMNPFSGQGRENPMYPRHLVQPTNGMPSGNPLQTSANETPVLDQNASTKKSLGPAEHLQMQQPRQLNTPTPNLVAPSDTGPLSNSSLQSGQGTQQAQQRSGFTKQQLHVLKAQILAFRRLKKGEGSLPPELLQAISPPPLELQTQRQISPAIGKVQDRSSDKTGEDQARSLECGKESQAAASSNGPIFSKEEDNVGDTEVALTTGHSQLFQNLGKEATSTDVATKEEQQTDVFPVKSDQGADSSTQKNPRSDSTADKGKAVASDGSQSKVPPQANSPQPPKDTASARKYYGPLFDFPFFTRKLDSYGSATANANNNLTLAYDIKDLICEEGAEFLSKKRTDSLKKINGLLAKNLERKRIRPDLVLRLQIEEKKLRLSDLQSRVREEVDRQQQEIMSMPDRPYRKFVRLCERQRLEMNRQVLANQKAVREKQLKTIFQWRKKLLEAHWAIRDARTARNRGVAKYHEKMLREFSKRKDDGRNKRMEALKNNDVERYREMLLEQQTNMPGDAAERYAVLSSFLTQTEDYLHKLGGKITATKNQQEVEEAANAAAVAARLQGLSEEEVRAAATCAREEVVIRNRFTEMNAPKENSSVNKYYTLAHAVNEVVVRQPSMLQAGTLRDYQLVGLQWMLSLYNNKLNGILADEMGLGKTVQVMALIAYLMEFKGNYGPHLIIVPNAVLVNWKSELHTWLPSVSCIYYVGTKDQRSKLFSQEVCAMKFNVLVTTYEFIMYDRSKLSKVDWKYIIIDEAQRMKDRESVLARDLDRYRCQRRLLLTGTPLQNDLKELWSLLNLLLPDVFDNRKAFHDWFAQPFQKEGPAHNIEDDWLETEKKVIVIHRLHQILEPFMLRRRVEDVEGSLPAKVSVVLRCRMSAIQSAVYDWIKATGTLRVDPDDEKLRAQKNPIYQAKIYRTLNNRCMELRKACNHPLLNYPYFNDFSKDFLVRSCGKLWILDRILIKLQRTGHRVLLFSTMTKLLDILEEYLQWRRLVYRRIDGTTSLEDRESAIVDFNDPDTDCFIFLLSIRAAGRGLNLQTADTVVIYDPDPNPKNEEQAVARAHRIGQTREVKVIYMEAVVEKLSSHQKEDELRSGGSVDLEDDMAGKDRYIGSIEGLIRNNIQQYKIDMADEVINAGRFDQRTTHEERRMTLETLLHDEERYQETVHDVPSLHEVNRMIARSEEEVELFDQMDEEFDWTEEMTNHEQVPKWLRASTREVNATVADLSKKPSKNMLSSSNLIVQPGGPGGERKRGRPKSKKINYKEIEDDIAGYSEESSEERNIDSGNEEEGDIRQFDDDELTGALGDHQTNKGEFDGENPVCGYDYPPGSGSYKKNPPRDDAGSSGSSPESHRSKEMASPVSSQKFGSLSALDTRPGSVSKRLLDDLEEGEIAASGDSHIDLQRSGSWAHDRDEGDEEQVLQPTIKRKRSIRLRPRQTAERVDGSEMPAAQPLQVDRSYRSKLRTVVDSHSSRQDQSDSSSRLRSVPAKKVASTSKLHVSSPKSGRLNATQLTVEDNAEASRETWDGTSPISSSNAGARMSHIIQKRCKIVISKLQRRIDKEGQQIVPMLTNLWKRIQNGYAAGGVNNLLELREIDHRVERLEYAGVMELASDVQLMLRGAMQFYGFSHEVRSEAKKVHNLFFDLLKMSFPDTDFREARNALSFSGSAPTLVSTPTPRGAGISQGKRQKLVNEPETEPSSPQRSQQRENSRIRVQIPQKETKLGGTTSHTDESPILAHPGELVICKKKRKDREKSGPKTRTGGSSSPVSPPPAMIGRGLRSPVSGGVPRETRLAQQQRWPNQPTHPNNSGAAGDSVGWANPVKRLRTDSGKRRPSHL
UniProt Q9LM88: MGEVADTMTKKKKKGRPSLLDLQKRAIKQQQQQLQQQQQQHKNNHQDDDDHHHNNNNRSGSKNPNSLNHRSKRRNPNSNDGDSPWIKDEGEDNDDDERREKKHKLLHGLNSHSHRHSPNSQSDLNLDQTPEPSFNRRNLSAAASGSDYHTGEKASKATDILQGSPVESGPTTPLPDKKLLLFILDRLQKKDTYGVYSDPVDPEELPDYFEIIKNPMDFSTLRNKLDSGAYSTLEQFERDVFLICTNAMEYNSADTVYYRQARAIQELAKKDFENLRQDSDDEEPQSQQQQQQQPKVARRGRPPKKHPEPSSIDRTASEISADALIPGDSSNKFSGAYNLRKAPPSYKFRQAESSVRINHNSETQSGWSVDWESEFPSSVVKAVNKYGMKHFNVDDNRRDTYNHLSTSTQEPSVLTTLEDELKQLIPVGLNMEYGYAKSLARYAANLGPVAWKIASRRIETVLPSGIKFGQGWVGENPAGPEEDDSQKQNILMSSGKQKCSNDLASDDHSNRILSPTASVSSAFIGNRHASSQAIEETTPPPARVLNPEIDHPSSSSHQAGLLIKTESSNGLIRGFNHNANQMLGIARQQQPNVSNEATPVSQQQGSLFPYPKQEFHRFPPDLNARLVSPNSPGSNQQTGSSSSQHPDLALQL
UniProt Q9LF51: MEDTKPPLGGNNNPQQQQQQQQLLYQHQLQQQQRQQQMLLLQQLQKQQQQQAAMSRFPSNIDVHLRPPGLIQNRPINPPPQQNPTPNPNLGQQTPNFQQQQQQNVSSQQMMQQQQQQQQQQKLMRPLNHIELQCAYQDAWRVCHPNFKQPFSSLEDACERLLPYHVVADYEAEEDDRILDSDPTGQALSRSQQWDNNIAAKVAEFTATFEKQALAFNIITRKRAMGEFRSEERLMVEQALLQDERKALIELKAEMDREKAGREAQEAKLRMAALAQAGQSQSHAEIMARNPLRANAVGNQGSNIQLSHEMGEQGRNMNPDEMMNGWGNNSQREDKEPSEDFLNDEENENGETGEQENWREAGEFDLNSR

How the values were obtained:
[1] = target: BCL7B-GFP (Arabidopsis thaliana) (UniProt Q9FLP2); assay: affinity purification with mass spectrometry; anti-GFP beads on extracts of 14-day-old Arabidopsis seedlings with BCL7A-GFP (bcl7a) or BCL7B-GFP (bcl7b); SWI3A and SWI3D also told for the brm-1 background; two biological replicates
[2] = target: BCL7A-GFP (Arabidopsis thaliana) (UniProt F4JL58); assay: as above
[3] = target: BRM-GFP (Arabidopsis thaliana) (UniProt Q6EVK6); assay: affinity purification with mass spectrometry; immunoprecipitation of BRM-GFP from Arabidopsis seedlings in the WT (brm-1) and bcl7a bcl7b backgrounds; two biological replicates
[4] = target: BCL7B-GFP (Arabidopsis thaliana) (UniProt Q9FLP2); assay: affinity purification with mass spectrometry; anti-GFP beads on extracts of 14-day-old Arabidopsis seedlings with BCL7A-GFP (bcl7a) or BCL7B-GFP (bcl7b); SWI3A and SWI3D also told for the brm-1 background; two biological replicates; remark: listed apart in the source
[5] = target: BCL7A-GFP (Arabidopsis thaliana) (UniProt F4JL58); assay: as above; remark: listed apart in the source

binding [1]: binds
binding [2]: binds
Molecule: SPLAYED (SYD) (from UniProt F4IHS2 1-3574)

binding [1]: binds
binding [2]: binds
Molecule: BRAHMA (BRM) (from UniProt Q6EVK6 1-2193)

binding [3]: binds
Molecule: BRD1 (from UniProt Q9LM88)

binding [3]: binds
Molecule: BRIP2 (from UniProt Q9LF51)

binding [3]: binds
B1: SWI3C (protein, UniProt Q9XI07 1-807)
chain: MPASEDRRGKWKRKKRGGLSAARKPKQEEEDMEEEDEENNNNNNEEMDDVENADELQQNGGATPDPGLGIGEVVEDSGSRISDFPAVVKRVVIRPHASVMAVVAAERAGLIGETRGQGSLPALENISFGQLQALSTVPADSLDLERSDGSSSAYVISPPPIMDGEGVVKRFGDLVHVLPMHSDWFAPNTVDRLERQVVPQFFSGKSPNHTPESYMEFRNAIVSKYVENPEKTLTISDCQGLVDGVDIEDFARVFRFLDHWGIINYCATAQSHPGPLRDVSDVREDTNGEVNVPSAALTSIDSLIKFDKPNCRHKGGEVYSSLPSLDGDSPDLDIRIREHLCDSHCNHCSRPLPTVYFQSQKKGDILLCCDCFHHGRFVVGHSCLDFVRVDPMKFYGDQDGDNWTDQETLLLLEAVELYNENWVQIADHVGSKSKAQCILHFLRLPVEDGLLDNVEVSGVTNTENPTNGYDHKGTDSNGDLPGYSEQGSDTEIKLPFVKSPNPVMALVAFLASAVGPRVAASCAHESLSVLSEDDRMKSEGMQGKEASLLDGENQQQDGAHKTSSQNGAEAQTPLPQDKVMAAFRAGLSAAATKAKLFADHEEREIQRLSANIVNHQLKRMELKLKQFAEIETLLMKECEQVEKTRQRFSAERARMLSARFGSPGGISPQTNNLQGMSLSTGGNNINSLMHQQHQQQQASATSQPSIIPGFSNNPQVQAQMHFMARQQQQQQQQQQQQQQAFSFGPRLPLNAIQTNAGSTASPNVMFGNNQLNNPAAAGAASINQPSFSHPMVRSSTGSGSGSGLGLN

binding [4]: binds
binding [5]: binds
B2: MINU2 (protein, UniProt F4K128 1-1064)
chain: MVKQLQEQEENDPVEKTKSLISALNYLSRDLLLPSHLYASVSSIYHASVSDLSPSPPLRGNSYTPNRGDLMSEFEDALLQQRLNYESGSRLAELKETRYKNRIHNRLSQLEGLPSNRGEDLQEKCLLELYGLKLQELQCRVRGEVSAEYWLRLNCADPERQLYDWGMMRLPRRMYGVGDSFVMEADDQFRNKRDAERLLRLEEEEKNLIETTQRKFFAEVLNAVREFQLQIQASHRRCKQRNDGVQAWHGKQRQRATRAEKLRIMALKSDDQEEYMKLAKESKNEKLTLFLEETNKIFVSLGAAVQRQKDAKLSENTKLLKGSESDLSDVDAPEDVLPAQDIEIIDSDNNDDSNDLLEGERQFNLAIHSIQEKVTKQPSLLQGGELRSYQLEGLQWMVSLYNNDYNGILADEMGLGKTIQTIALIAYLLESKDLHGPHLILAPKAVLPNWENEFALWAPSISAFLYDGSKEKRTEIRARIAGGKFNVLITHYDLIMRDKAFLKKIDWNYMIVDEGHRLKNHECALAKTLGTGYRIKRRLLLTGTPIQNSLQELWSLLNFLLPHIFNSIHNFEEWFNTPFAECGSASLTDEEELLIINRLHHVIRPFLLRRKKSEVEKFLPGKTQVILKCDMSAWQKLYYKQVTDVGRVGLHSGNGKSKSLQNLTMQLRKCCNHPYLFVGADYNMCKKPEIVRASGKFELLDRLLPKLKKAGHRILLFSQMTRLIDLLEIYLSLNDYMYLRLDGSTKTDQRGILLKQFNEPDSPYFMFLLSTRAGGLGLNLQTADTIIIFDSDWNPQMDQQAEDRAHRIGQKKEVRVFVLVSIGSIEEVILERAKQKMGIDAKVIQAGLFNTTSTAQDRREMLEEIMSKGTSSLGEDVPSEREINRLAARTEEEFWMFEQMDEERRKKENYKTRLMEEKEVPEWAYTSETQEDKTNAKNHFGSLTGKRKRKEAVYSDSLSDLQWMKAMESEDEDASKVSQKRKRTDTKTRMSNGSKAEAVLSESDEEKEEEEEERKEESGKESEEENEKPLHSWKTNKKKRSRYPVMTSSPNSRGKGSSKGSKRN

binding [4]: binds
binding [5]: binds
B3: SWI3D (protein, UniProt Q8VY05 1-985)
chain: MEEKRRDSAGTLAFAGSSGDSPASEPMPAPRRRGGGLKRKANALGGSNFFSSAPSKRMLTREKAMLASFSPVHNGPLTRARQAPSIMPSAADGVKSEVLNVAVGADGEKPKEEEERNKAIREWEALEAKIEADFEAIRSRDSNVHVVPNHCGWFSWEKIHPLEERSLPSFFNGKLEGRTSEVYREIRNWIMGKFHSNPNIQIELKDLTELEVGDSEAKQEVMEFLDYWGLINFHPFPPTDTGSTASDHDDLGDKESLLNSLYRFQVDEACPPLVHKPRFTAQATPSGLFPDPMAADELLKQEGPAVEYHCNSCSADCSRKRYHCPKQADFDLCTECFNSGKFSSDMSSSDFILMEPAEAPGVGSGKWTDQETLLLLEALEIFKENWNEIAEHVATKTKAQCMLHFLQMPIEDAFLDQIDYKDPISKDTTDLAVSKDDNSVLKDAPEEAENKKRVDEDETMKEVPEPEDGNEEKVSQESSKPGDASEETNEMEAEQKTPKLETAIEERCKDEADENIALKALTEAFEDVGHSSTPEASFSFADLGNPVMGLAAFLVRLAGSDVATASARASIKSLHSNSGMLLATRHCYILEDPPDNKKDPTKSKSCSADAEGNDDNSHKDDQPEEKSKKAEEVSLNSDDREMPDTDTGKETQDSVSEEKQPGSRTENSTTKLDAVQEKRSSKPVTTDNSEKPVDIICPSQDKCSGKELQEPLKDGNKLSSENKDASQSTVSQSAADASQPEASRDVEMKDTLQSEKDPEDVVKTVGEKVQLAKEEGANDVLSTPDKSVSQQPIGSASAPENGTAGGNPNIEGKKEKDICEGTKDKYNIEKLKRAAISAISAAAVKAKNLAKQEEDQIRQLSGSLIEKQLHKLEAKLSIFNEAESLTMRVREQLERSRQRLYHERAQIIAARLGVPPSMSSKASLPTNRIAANFANVAQRPPMGMAFPRPPMPRPPGFPVPGSFVAATTMTGSSDPSPGSDNVSSV

binding [3]: binds
B4: ARP4 (protein, UniProt Q84M92 1-441)
chain: MYGGDEVSAIVVDLGSHTCKAGYAGEDAPKAVFPSVIGAVDGVEAMDVDVDSTKTNSNSEDSKTESEKEKSKRKLYVGSQAMSYRRDHMEVLSPIKDGIVSDWDLVDNIWEHAFKSCLMIDPTEHPMLLAEPPLNTQQQREKAAELMFEKYKVPALFMAKNPVLTSFATGRATSLVVDCGGGSTTISPVHDGYVLQKAVVSSPLGGEFLTDCLLKSLESKGIKIRPRYSFKRKEVRAGEFQVEDVDIPDTTESYKLFCQRMIVGDIKDSICRVPDTPYDDKSYSNIPTTSYELPDGQTLEIGADRFKVPDVMFNPSIVQTIPGMEKYAEMIPSVRGLPHMVMESINKCDVDIRRELYSSILLAGGTSSMQQLKERLEKDLIEESPHSARVKVLASGNTTERRFSVWIGGSILASLGSFQQMWFSKSEYEEHGASYIQRKCP

binding [3]: binds
B5: ARP7 (protein, UniProt Q8L4Y5 1-363)
chain: MEALVVDAGSKFLKAGAAIPDQSPAMIIPSQMKRMVDDGSSSADNPTTVFEDVTLDPIERGLIRDWDAMEDLLRYVVYTGLGWEEGNEGNILFTDPLCTPKAIREQLVQLMFETFNVSGFYASEQAVLSLYAVGRISGCTVDIGHGKIDIAPVLEGAVQHIASKRFELGGTELTKLFAQELGKTNPSMNLSMSDVEKLKEQYANCAEDEIAYKKTQNCEIEQHTLPDGQVISIGRERYSVGEALFQPSILGLEEHGIVEQLVRIISTVSSENHRQLLENTVLCGGTTSMTGFESRFQKEANLCSSAIRPTLVKPPEYMPENLGMYSAWVGGAILAKVVFPQNQHVTKADYDETGPSVVHRKCF
